Laboratory results: the supplement of paper PMC11409438
Structures can show the parent of a compound that is named as a salt. Some of the results follow. Single values are uncertain, as repeats are few or missing.

Key:
[1] = system: Caenorhabditis elegans ST65 (ncIs13[ajm-1::GFP]); assay: 'Larvae/adult' ratio (MetaXpress pharynx counts; minimum value 1, so it appears to include adults; growth inhibition read-out); conditions: 10 µM; exposure time: 4-5 days from L1 at 20°C
[2] = system: Caenorhabditis elegans ST65 (ncIs13[ajm-1::GFP]); assay: vulvae per adult worm (MAPK/ERK-dependent vulval induction, MetaXpress) (vulvae/adult); higher = more vulval induction (less MAPK/ERK inhibition); conditions: 10 µM; exposure time: 4-5 days from L1 at 20°C

SMILES	'Larvae/adult' ratio [1]	vulvae per adult worm [2]
N#Cc1ccc2[nH]c(O)c(-c3ccc(CN4CCOCC4)cn3)c2c1	1.98	0.882
Cc1cc(C(C)Nc2ccccc2)c2nc(N3CCOCC3)cc(=O)n2c1 (stereo unspecified)	1.81	0.511
CC(=O)O[C@@]12CO[C@@H]1C[C@H](O)[C@@]1(C)C(=O)[C@H](O)C3=C(C)[C@@H](OC(=O)[C@H](O)[C@@H](NC(=O)OC(C)(C)C)c4ccccc4)C[C@@](O)([C@@H](OC(=O)c4ccccc4)[C@H]21)C3(C)C [Docetaxel]	4	0.125
Cc1ccc(-n2nc(C(C)(C)C)cc2NC(=O)Nc2ccc(OCCN3CCOCC3)c3ccccc23)cc1 [Doramapimod (BIRB 796)]	1.56	0.778
Cc1ccc(C(=O)Nc2cccc(C(F)(F)F)c2)cc1Nc1nc(-c2cccnc2)nc2c1cnn2C	1.77	1
O=C(NC[C@H](O)CN1CCc2ccccc2C1)c1cc(NC2COC2)ncn1	1.97	1.1
Cc1cccc(CC(=O)N2CCc3c2ccc(-c2cn(C)c4ncnc(N)c24)c3F)n1	1.76	0.759
Nc1nc2[nH]cnc2c(=S)[nH]1 [Thioguanine]	1.75	0.938
CN(Cc1cnc2nc(N)nc(N)c2n1)c1ccc(C(=O)N[C@@H](CCC(=O)O)C(=O)O)cc1 [Methotrexate]	1.71	0.794
CNc1nc(-c2ccc3c(N)n[nH]c3c2)cc(N2C[C@@H](C(=O)NC3CCCCC3)CC[C@H]2C)n1	1.63	0.711
COc1ccc(-c2nc(N3CCOCC3)c3sc(CN(C)c4ncc(C(=O)NO)cn4)cc3n2)cn1	2.58	0.75
FC(F)c1nc2ccccc2n1-c1nc(N2CCOCC2)nc(N2CCOCC2)n1	2.13	0.957
O=C1CN2Cc3c(ccc(Cl)c3Cl)N=C2N1 [Anagrelide HCl]	2.12	1
COc1cc2nccc(Oc3ccc(NC(=O)Nc4cc(C)on4)c(Cl)c3)c2cc1OC [Tivozanib (AV-951)]	1.97	0.759
O=C(O)C1(C(=O)O)CCC1.[NH2-].[NH2-].[Pt+2] [Carboplatin]	1.77	0.857
CC(C)Nc1cc(-c2c[nH]c(C(=O)N[C@H](CO)c3cccc(Cl)c3)c2)c(Cl)cn1	1.56	0.667
CN[C@@H](C)C(=O)N[C@H]1CN(C(=O)CC(C)C)CC[C@H]2CC[C@@H](C(=O)NC(c3ccccc3)c3ccccc3)N2C1=O	1.87	0.711
O=C(NOC[C@H](O)CO)c1ccc(F)c(F)c1Nc1ccc(I)cc1F	1.4	0.025
COc1cc(N2CCN(C)CC2)ccc1Nc1nccc(-c2cn(C)c3cnccc23)n1	1.49	0.122
C[C@H]1CNCCCN1S(=O)(=O)c1cccc2cncc(F)c12 [Ripasudil (K-115) hydrochloride dihydrate]	2.33	1.09
OC1CCC(Nc2ncc3nc(Nc4c(F)cc(F)cc4F)n([C@H]4CCOC4)c3n2)CC1 (stereo partly specified) [Tanzisertib(CC-930)]	2.26	0.947

3 records drawn at random from the list so far, as already listed:
SMILES	'Larvae/adult' ratio [1]	vulvae per adult worm [2]
Cc1cccc(CC(=O)N2CCc3c2ccc(-c2cn(C)c4ncnc(N)c24)c3F)n1	1.76	0.759
O=C(NOC[C@H](O)CO)c1ccc(F)c(F)c1Nc1ccc(I)cc1F	1.4	0.025
O=C(O)C1(C(=O)O)CCC1.[NH2-].[NH2-].[Pt+2] [Carboplatin]	1.77	0.857

(cont.)

SMILES	'Larvae/adult' ratio [1]	vulvae per adult worm [2]
CN(CC(=O)N(Cc1ccc(C2CCCCC2)cc1)c1ccc(C(=O)O)cc1)S(=O)(=O)c1c(F)c(F)c(F)c(F)c1F	2	0.878
CC(C)C(=O)Nc1ccc([N+](=O)[O-])c(C(F)(F)F)c1 [Flutamide]	5	0.857
CC(O)c1cc(C(=O)N[C@@H](C)Cn2ccc(-c3ccc(C#N)c(Cl)c3)n2)n[nH]1 (stereo partly specified) [Darolutamide (ODM-201)]	2	1.09
CN(C)C/C=C/C(=O)Nc1cc2c(Nc3ccc(F)c(Cl)c3)ncnc2cc1O[C@H]1CCOC1 [Afatinib (BIBW2992)]	1.68	0.892
CC(C)C[C@H](NC(=O)[C@H](CCc1ccccc1)NC(=O)CN1CCOCC1)C(=O)N[C@@H](Cc1ccccc1)C(=O)N[C@@H](CC(C)C)C(=O)[C@@]1(C)CO1 [Carfilzomib (PR-171)]	1.89	1
O=C(Nc1cnn2ccc(N3CCC[C@@H]3c3cc(F)ccc3F)nc12)N1CC[C@H](O)C1 [Larotrectinib (LOXO-101) sulfate]	2.52	0.931
C#Cc1cccc(Nc2ncnc3cc4c(cc23)OCCOCCOCCO4)c1 [Icotinib]	4.8	0.8
CN1CCN(CCOc2cc(OC3CCOCC3)c3c(Nc4c(Cl)ccc5c4OCO5)ncnc3c2)CC1 [Saracatinib (AZD0530)]	3.08	1.31
CNC(=O)[C@@H](NC(=O)[C@H](CC(C)C)[C@H](O)C(=O)NO)C(C)(C)C [Marimastat (BB-2516)]	1.41	0.957
Nc1nc2cc(-c3ccc4ncc(C(=O)N5CCOCC5)n4c3)ccc2o1 [Serabelisib (INK-1117,MLN-1117,TAK-117)]	2.07	0.815
Nc1nc(F)nc2c1ncn2[C@@H]1O[C@H](CO)[C@@H](O)[C@@H]1O [Fludarabine]	2.38	1.1
CC(C)n1nc(-c2ccc3oc(N)nc3c2)c2c(N)ncnc21 [Sapanisertib (INK 128, MLN0128)]	1.94	0.394
O=C1NC(=O)[C@@H](c2cn3c4c(cccc24)CCC3)[C@@H]1c1c[nH]c2ccccc12 [Tivantinib (ARQ 197)]	2.77	0.923
C=CC(=O)N1CCC[C@@H](n2nc(-c3ccc(Oc4ccccc4)cc3)c3c(N)ncnc32)C1	1.71	1.11
N#Cc1ccc(COC[C@H]2O[C@@H](n3c(NCc4ccc(Cl)c(Cl)c4)nc4c(N)ncnc43)[C@H](O)[C@@H]2O)cc1	2.52	1.09
CC(C)(O)CNc1nc(Nc2ccnc(C(F)(F)F)c2)nc(-c2cccc(C(F)(F)F)n2)n1 [Enasidenib (AG-221)]	4.45	0.818
CCCCCCCCc1ccc(CCC(N)(CO)CO)cc1 [Fingolimod (FTY720) HCl]	2	1
C=CC(=O)N1CCC(Oc2cc3c(Nc4ccc(Cl)c(Cl)c4F)ncnc3cc2OC)CC1 [Poziotinib (HM781-36B)]	1.97	1
NS(=O)(=O)NCCNc1nonc1/C(=N/O)Nc1ccc(F)c(Br)c1	3.32	1.2
CCN(CC)CCCC(C)Nc1ccnc2cc(Cl)ccc12 (stereo unspecified) [Chloroquine Phosphate]	2	0.95
COc1cc(OC2CCN(C)CC2)ccc1Nc1ncc2c(n1)n(C1CCCC1)c(=O)n2C	4.18	0.727

SMILES	'Larvae/adult' ratio [1]	vulvae per adult worm [2]
CN1CCc2c(c3ccccc3n2Cc2ccc(C(=O)NO)cc2)C1 [Tubastatin A]	2.44	1.02
NC(=O)Nc1cc(-c2cccc(F)c2)sc1C(=O)N[C@H]1CCCNC1	1.59	0.588
Cc1cc(Nc2ncnc3ccc(NC4=NC(C)(C)CO4)cc23)ccc1Oc1ccn2ncnc2c1 [Irbinitinib (ARRY-380, ONT-380)]	2.39	1.11
COc1cc2c(Oc3ccc(NC(=O)C4(C(=O)Nc5ccc(F)cc5)CC4)cc3F)ccnc2cc1OCCCN1CCOCC1	2.8	0.6
COc1cc(OC)c(/C=C/S(=O)(=O)Cc2ccc(OC)c(NCC(=O)O)c2)c(OC)c1	1.56	0.926
COc1cccc2c1c(O)c(C(=O)N(C)c1ccc(C(F)(F)F)cc1)c(=O)n2C [Tasquinimod]	1.33	1.05
COCCOc1cnc2ccn([C@H](C)c3nnc4c(F)cc(-c5cnn(C)c5)cn34)c(=O)c2c1	2.12	0.92
Cc1[nH]nc(C(F)(F)F)c1Cc1sc2c(c1C(=O)N1C[C@](C)(O)CO1)c(=O)n(C)c(=O)n2C(C)C	2.59	0.923
O=c1[nH]c(=O)n([C@H]2C[C@H](O)[C@@H](CO)O2)cc1F [Floxuridine]	1.77	1.03
Cn1ncc(Cl)c1-c1cc(C(=O)N[C@H](CN)Cc2cccc(F)c2)sc1Cl	1.8	0.9
COc1cc2c(cc1OC(C)C)[C@H](c1ccc(Cl)cc1)N(c1ccc(N(C)C[C@H]3CC[C@H](N4CCN(C)C(=O)C4)CC3)cc1)C(=O)C2	2.31	1.08
COc1cc(OC)cc(N(CCNC(C)C)c2ccc3ncc(-c4cnn(C)c4)nc3c2)c1	4.5	1
CNC(=O)c1cccc(-c2ccc3c(N4CCOC[C@@H]4C)nc(N4CCOC[C@@H]4C)nc3n2)c1 [Vistusertib (AZD2014)]	3.6	1.9
Cc1cc2c(C(=O)NC[C@H](C)c3ccccc3)c(O)c(O)cc2c(O)c1-c1c(C)cc2c(C(=O)NC[C@H](C)c3ccccc3)c(O)c(O)cc2c1O [Sabutoclax]	2.81	0.75
CN1CCC(COc2cnc(-c3cccc(Cn4nc(-c5cccc(C#N)c5)ccc4=O)c3)nc2)CC1	3.29	1.52
Nc1nc(Cl)nc2c1ncn2[C@H]1C[C@H](O)[C@@H](CO)O1 [Cladribine]	2.56	1.06
Cc1nc(-c2cn3c(n2)-c2ccc(-c4cnn(C(C)(C)C(N)=O)c4)cc2OCC3)n(C(C)C)n1 [Taselisib (GDC 0032)]	2.52	1.13
Cc1nc2cccc(N)c2c(=O)n1C1CCC(=O)NC1=O (stereo unspecified) [Avadomide(CC-122)]	2.12	0.854
Cc1cn(-c2cc(NC(=O)c3ccc(C)c(Nc4nccc(-c5cnccn5)n4)c3)cc(C(F)(F)F)c2)cn1 [Radotinib]	1.93	1
C[C@H]1O[C@@H](O[C@H]2[C@@H](O)C[C@H](O[C@H]3[C@@H](O)C[C@H](O[C@H]4CC[C@@]5(C)[C@H](CC[C@@H]6[C@@H]5C[C@@H](O)[C@]5(C)[C@@H](C7=CC(=O)OC7)CC[C@]65O)C4)O[C@@H]3C)O[C@@H]2C)C[C@H](O)[C@@H]1O [Digoxin]	1.29	1
COc1ccc(CCc2nc3cc(-c4c(C)noc4C)ccc3n2C[C@H](C)N2CCOCC2)cc1Cl	3.41	0.882
